The target of test [1] is NRPD1-3xFWT (Arabidopsis) (UniProt Q9LQ02). The experiment in a line: affinity purification with mass spectrometry; anti-FLAG magnetic beads (uMACS DYKDDDK kit) on flower extracts of nrpd1-3 T2 lines with NRPD1-3xF WT, AAA-YPMF or CYC-AAAA; three lines, two replicates each; LC-MS/MS spectral counts.
For test [2], the target named is T1, 3xHA-CLSY1 (Arabidopsis) (UniProt Q9M297).
T1 sequence: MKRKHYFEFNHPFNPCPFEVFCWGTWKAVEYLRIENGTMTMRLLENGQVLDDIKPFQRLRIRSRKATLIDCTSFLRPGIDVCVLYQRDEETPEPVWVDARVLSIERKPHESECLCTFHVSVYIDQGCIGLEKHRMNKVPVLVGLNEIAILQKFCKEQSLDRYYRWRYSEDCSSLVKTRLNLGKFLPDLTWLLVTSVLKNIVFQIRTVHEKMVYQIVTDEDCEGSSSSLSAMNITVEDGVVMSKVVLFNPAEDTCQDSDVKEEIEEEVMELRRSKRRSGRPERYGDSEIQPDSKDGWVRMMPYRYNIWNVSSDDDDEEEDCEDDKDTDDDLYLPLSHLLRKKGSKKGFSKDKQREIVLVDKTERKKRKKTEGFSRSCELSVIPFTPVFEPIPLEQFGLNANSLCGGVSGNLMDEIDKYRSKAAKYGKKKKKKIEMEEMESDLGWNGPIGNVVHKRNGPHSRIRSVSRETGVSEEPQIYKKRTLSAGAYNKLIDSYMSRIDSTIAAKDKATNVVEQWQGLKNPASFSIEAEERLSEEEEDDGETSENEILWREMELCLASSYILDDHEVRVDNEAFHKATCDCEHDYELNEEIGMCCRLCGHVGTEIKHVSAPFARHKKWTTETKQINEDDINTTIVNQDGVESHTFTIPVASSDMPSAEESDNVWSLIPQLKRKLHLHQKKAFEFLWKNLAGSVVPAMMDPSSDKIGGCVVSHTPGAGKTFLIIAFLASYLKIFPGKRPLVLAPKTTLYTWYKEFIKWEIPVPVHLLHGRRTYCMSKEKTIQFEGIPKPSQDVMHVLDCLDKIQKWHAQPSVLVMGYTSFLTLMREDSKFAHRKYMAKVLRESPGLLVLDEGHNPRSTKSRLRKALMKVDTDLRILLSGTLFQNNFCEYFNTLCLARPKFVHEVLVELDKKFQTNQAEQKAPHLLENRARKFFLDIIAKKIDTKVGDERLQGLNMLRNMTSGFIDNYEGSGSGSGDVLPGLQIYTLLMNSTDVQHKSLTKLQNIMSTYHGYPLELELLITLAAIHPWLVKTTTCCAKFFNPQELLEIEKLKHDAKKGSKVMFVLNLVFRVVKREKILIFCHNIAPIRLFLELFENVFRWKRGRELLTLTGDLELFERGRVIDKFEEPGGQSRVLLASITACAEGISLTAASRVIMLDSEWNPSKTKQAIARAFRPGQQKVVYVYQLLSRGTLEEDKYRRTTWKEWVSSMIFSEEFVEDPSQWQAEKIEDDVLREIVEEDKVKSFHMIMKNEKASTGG
The experiment in a line: affinity purification with mass spectrometry; anti-HA IP (uMACS HA kit) of 3xHA-CLSY1 from flowers of nrpd1-3 lines with NRPD1-3xF WT or AAA-YPMF; LC-MS/MS.

Sequences of proteins named here, by UniProt entry; tags and fusion partners are left off.
UniProt Q9LQ02: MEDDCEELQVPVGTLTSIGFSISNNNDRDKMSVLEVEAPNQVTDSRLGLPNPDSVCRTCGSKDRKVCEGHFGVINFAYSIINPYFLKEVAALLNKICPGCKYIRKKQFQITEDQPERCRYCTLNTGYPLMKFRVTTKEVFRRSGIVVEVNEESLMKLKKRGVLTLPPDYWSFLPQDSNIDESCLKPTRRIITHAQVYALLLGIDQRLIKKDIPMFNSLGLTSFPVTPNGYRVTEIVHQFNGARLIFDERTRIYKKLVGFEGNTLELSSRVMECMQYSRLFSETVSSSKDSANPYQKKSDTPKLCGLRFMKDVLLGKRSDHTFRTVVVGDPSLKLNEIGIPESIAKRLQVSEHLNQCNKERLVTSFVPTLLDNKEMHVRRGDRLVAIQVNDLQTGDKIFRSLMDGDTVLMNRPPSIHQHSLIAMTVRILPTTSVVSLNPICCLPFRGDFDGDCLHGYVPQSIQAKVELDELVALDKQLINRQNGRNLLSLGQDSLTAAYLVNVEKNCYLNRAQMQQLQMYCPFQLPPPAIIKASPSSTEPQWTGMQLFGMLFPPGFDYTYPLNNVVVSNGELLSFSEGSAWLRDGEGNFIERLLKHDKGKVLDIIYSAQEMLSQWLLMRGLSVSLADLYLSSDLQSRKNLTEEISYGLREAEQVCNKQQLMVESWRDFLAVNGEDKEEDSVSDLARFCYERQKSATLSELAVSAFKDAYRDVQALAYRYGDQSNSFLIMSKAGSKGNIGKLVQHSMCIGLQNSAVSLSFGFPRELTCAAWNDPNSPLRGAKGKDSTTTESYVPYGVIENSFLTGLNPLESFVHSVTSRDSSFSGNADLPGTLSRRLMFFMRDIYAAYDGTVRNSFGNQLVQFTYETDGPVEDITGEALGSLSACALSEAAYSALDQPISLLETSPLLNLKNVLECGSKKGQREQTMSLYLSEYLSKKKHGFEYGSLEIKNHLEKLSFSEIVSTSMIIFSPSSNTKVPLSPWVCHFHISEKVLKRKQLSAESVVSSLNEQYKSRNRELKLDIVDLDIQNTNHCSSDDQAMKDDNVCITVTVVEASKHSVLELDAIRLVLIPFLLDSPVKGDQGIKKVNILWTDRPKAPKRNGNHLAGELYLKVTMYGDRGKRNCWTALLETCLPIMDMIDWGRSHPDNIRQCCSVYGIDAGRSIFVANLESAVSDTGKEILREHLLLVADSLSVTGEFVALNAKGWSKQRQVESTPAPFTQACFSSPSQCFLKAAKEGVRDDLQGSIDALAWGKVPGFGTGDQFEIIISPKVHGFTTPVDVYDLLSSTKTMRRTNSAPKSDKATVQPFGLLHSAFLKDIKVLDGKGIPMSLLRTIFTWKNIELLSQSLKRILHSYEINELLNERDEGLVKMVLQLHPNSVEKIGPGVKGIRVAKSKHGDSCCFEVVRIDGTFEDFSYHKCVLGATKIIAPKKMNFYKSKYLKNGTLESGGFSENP

Test [3] has as its target T2, 3xF-tagged CLSY4 (Arabidopsis) (UniProt Q9LK10).
T2 sequence: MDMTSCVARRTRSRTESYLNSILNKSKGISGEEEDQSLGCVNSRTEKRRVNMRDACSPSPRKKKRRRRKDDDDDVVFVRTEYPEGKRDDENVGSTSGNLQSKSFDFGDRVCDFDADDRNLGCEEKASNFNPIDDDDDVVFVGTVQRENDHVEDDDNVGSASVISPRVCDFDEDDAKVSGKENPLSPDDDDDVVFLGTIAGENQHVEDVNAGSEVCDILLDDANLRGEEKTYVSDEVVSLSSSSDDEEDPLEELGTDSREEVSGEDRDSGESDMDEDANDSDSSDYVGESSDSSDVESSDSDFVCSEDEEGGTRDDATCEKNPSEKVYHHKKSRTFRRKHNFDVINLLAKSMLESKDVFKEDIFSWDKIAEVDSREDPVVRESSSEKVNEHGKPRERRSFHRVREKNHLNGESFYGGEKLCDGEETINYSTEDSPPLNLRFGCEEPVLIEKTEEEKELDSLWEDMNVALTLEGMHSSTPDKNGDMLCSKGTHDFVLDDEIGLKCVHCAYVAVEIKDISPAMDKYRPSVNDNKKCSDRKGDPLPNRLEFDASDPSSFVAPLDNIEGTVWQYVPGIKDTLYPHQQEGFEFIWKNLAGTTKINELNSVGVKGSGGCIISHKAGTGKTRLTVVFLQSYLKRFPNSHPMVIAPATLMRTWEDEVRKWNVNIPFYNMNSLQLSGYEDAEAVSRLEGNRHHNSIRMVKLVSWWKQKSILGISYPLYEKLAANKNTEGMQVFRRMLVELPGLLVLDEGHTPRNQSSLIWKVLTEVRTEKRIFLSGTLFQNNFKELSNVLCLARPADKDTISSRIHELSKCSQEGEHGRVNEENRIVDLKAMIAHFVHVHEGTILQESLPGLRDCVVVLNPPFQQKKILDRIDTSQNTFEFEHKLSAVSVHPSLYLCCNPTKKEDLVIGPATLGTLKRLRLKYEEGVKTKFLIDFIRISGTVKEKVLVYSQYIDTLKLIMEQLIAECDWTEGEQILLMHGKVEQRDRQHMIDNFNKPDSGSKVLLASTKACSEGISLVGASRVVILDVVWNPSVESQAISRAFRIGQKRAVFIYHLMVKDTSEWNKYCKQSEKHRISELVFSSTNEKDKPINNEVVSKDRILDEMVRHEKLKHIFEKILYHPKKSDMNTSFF
Description: affinity purification with mass spectrometry; anti-Flag M2 magnetic beads on 10 g flowers of 3xF-tagged CLSY lines in their clsy mutant backgrounds; elution with 3x-FLAG peptide; compared to non-transgenic wild-type controls.

Test [4] addresses T3, 3xF-tagged CLSY1 (Arabidopsis) (UniProt Q9M297).
T3 sequence: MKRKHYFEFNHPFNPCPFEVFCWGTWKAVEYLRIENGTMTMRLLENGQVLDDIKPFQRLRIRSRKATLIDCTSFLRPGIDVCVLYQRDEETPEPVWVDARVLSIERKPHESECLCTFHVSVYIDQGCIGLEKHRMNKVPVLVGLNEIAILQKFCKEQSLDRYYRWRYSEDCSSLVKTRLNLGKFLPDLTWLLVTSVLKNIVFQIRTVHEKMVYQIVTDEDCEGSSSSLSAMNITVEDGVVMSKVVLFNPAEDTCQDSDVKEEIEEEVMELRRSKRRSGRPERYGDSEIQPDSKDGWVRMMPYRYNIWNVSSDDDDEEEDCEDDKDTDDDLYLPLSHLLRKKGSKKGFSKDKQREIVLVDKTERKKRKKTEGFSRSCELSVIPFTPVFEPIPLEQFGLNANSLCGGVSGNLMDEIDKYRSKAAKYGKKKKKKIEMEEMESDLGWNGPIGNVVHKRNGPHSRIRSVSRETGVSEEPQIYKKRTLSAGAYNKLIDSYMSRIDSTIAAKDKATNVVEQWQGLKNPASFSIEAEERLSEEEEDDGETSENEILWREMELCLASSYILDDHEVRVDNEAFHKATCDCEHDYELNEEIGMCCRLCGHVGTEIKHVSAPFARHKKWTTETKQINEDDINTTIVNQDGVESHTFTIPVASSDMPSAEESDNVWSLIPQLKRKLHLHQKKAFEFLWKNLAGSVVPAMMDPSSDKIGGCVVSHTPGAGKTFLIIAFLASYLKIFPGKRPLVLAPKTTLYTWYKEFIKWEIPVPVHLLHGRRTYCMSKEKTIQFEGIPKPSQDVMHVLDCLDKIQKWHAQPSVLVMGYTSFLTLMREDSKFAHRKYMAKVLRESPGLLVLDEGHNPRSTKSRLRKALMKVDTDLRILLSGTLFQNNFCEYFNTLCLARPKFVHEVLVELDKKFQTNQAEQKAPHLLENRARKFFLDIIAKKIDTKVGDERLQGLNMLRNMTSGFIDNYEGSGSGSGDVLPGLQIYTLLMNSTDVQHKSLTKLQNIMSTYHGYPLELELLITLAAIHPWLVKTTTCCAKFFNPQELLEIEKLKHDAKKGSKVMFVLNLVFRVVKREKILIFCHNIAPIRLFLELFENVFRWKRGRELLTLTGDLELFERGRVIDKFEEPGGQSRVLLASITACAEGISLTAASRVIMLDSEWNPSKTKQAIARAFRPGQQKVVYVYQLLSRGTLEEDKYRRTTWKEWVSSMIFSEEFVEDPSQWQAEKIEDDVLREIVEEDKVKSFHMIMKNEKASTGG
The description is as above.

The text below walks through data of paper PMC11603163.

These are yes or no findings as the source states them, for the method shown. Binding seen in cells or lysates may run through a third protein. A yes stands for co-enrichment or nearness to the bait. Other partners may have been found. For some of these results: A no says only that the protein was not detected with the bait. For some of these results: Where a sequence is shown, tags or fusion partners need not be part of it.

B1: CLASSY 3 (CLSY3) (protein, UniProt F4I8S3 1-1410)
chain: MECIGKRVKSRSWQRLQAVNKRKKMETVAPVTSPPKKRRQKKPKNYDSDIEDITPTCNDSVPPPQVSNMYSVPNNSVKESFSRIMRDLNVEKKSGPSSSRLTDGSEQNPCLKERSFRVSDLGVEKKCSPEITDLDVGIPVPRFSKLKDVSEQKNTCLMQKSSPEIADLDLVISVPSSSVLKDVSEEIRFLKDKCSPEIRGLVLEKSVPGEIEILSDSESETEARRRASAKKKLFEESSRIVESISDGEDSSSETDEEEEENQDSEDNNTKDNVTVESLSSEDPSSSSSSSSSSSSSSSSSSSDDESYVKEVVGDNRDDDDLRKASSPIKRVSLVERKALVRYKRSGSSLTKPRERDNKIQKLNHREEEKKERQREVVRVVTKQPSNVVYTCAHCGKENTGNPESHSSFIRPHSIRDEIEDVNNFASTNVSKYEDSVSINSGKTTGAPSRPEVENPETGKELNTPEKPSISRPEIFTTEKAIDVQVPEEPSRPEIYSSEKAKEVQAPEMPSRPEVFSSEKAKEIQVPEMPSIPEIQNSEKAKEVQANNRMGLTTPAVAEGLNKSVVTNEHIEDDSDSSISSGDGYESDPTLKDKEVKINNHSDWRILNGNNKEVDLFRLLVNSVWEKGQLGEEDEADELVSSAEDQSQEQAREDHRKYDDAGLLIIRPPPLIEKFGVEEPQSPPVVSEIDSEEDRLWEELAFFTKSNDIGGNELFSNVEKNISANETPAAQCKKGKHDLCIDLEVGLKCMHCGFVEREIRSMDVSEWGEKTTRERRKFDRFEEEEGSSFIGKLGFDAPNNSLNEGCVSSEGTVWDKIPGVKSQMYPHQQEGFEFIWKNLAGTIMLNELKDFENSDETGGCIMSHAPGTGKTRLTIIFLQAYLQCFPDCKPVIIAPASLLLTWAEEFKKWNISIPFHNLSSLDFTGKENSAALGLLMQKNATARSNNEIRMVKIYSWIKSKSILGISYNLYEKLAGVKDEDKKTKMVREVKPDKELDDIREILMGRPGLLVLDEAHTPRNQRSCIWKTLSKVETQKRILLSGTPFQNNFLELCNVLGLARPKYLERLTSTLKKSGMTVTKRGKKNLGNEINNRGIEELKAVMLPFVHVHKGSILQSSLPGLRECVVVLNPPELQRRVLESIEVTHNRKTKNVFETEHKLSLVSVHPSLVSRCKISEKERLSIDEALLAQLKKVRLDPNQSVKTRFLMEFVELCEVIKEKVLVFSQYIDPLKLIMKHLVSRFKWNPGEEVLYMHGKLEQKQRQTLINEFNDPKSKAKVFLASTKACSEGISLVGASRVILLDVVWNPAVERQAISRAYRIGQKRIVYTYHLVAKGTPEGPKYCKQAQKDRISELVFACSSRHDKGKEKIAEAVTEDKVLDTMVEHSKLGDMFDNLIVQPKEADLVEGFSILMP
For B1, the binding result in test [1] is “binds”; in test [2], “no binding”; in test [3], “no binding”; in test [4] it was “no binding”.
